In PMC7819943, “Rice protein-binding microarrays: a tool to detect cis-acting elements near promoter regions in rice”:
The list shows a part of the results.

By UniProt entry, the sequences of proteins in these tests, tags left out.
UniProt Q0JBA9, entry or part of it: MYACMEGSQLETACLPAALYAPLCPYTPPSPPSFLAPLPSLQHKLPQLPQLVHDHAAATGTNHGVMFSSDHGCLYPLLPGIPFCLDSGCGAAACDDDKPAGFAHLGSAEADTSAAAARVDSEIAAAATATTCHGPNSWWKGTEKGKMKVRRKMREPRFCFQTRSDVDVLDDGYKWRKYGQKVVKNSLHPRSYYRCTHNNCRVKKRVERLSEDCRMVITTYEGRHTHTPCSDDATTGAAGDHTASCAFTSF

Molecular target: OsWRKY34 (Oryza sativa, UniProt Q0JBA9 1-250)
Experiment: protein-binding microarray (RPBM); PBS, 2% BSA, 51.3 ng/ul salmon testes DNA, 50 uM zinc acetate, 200 nM TF, 25 C, 1 h; high values mean tight binding
Details: protein: recombinant; tags: N-terminal polyhistidine and DsRed monomer fusion (pET32a); label: CyDye5-dUTP incorporated in the synthesized complementary strand; 3' TTTTT single-stranded linker to array surface; dsDNA, one strand shown
In short: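 A custom Agilent array was converted to double-stranded form by primer extension with Cy5-dUTP and blocked with 2% BSA. Protein at 200 nM in PBS with 2% BSA, salmon testes DNA and 50 µM zinc acetate was applied for 1 h at 25 °C, followed by washing. The proteins were polyhistidine–DsRed N-terminal fusions of transcription factors, expressed in E. coli BL21-CodonPlus and Ni–NTA-purified. The binding signal is per-feature fluorescence intensity (arbitrary units) from an Axon 4000B scanner.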

Sequence | binding signal
AATATTTATCTGATCCCTTCTATACCATTAAAATTTTAACCGGAGTCACCTAGTGCAG | 8360 fluorescence intensity (a.u.)
CGACACCAACTCATCCCTCTTCCCCAACCGCGGCCCACCTCGGAGTCACCTAGTGCAG | 9980 fluorescence intensity (a.u.)
GCCTATTTTTTCGTACGGAGTTGGCTTGTAGTAGTTGCATCGGAGTCACCTAGTGCAG | 8950 fluorescence intensity (a.u.)
CTGAAAATTTTGTGCGCTCACACCATGTGCTACATTTGTCCGGAGTCACCTAGTGCAG | 10700 fluorescence intensity (a.u.)
TCTTAGTTGTTTTTTTTACTTCTATTGTGTCTATTGGATTCGGAGTCACCTAGTGCAG | 8310 fluorescence intensity (a.u.)
CAGGTTCATGCATGCGTGATTTCTTGGTTTTGTTTCTCCGCGGAGTCACCTAGTGCAG | 10400 fluorescence intensity (a.u.)
AGCACTACCCAGCCACACAACCATAAGTCGTCTCTCAGTGCGGAGTCACCTAGTGCAG | 9040 fluorescence intensity (a.u.)
TGTTCACATATCGCTTCATGTATTTACCACTAGTTAAAAACGGAGTCACCTAGTGCAG | 9420 fluorescence intensity (a.u.)
GGCTTTGTTGTGTTGAGCCCTTTCCTGGGCCTATAAATTCCGGAGTCACCTAGTGCAG | 10400 fluorescence intensity (a.u.)
AATCCGCCATTAGCACGTGTGGGTTACTGTAGCATTTATACGGAGTCACCTAGTGCAG | 8960 fluorescence intensity (a.u.)
GATTGAAAATCCGCATCCCTACATATTGCTTGCTGGTAATCGGAGTCACCTAGTGCAG | 9700 fluorescence intensity (a.u.)
AGATGCTATTTTCTGTCGACAGGCTATACACGGTCCCAAACGGAGTCACCTAGTGCAG | 8740 fluorescence intensity (a.u.)
GTTGTTGTCCTTCAATGTTCACTATGATGTTGCTCTTTTACGGAGTCACCTAGTGCAG | 8330 fluorescence intensity (a.u.)
GAATGGTTAAACATGTGAGAAAAAGTCAACGGCTATTAAACGGAGTCACCTAGTGCAG | 10200 fluorescence intensity (a.u.)
ATAGTGTCTGTTTGGTGAGCTTCCTGTAGATGCAACTCTCCGGAGTCACCTAGTGCAG | 9150 fluorescence intensity (a.u.)
GGCCCAAGTCCACTAAACTGCCCAAGATTGCAGGCTCACACGGAGTCACCTAGTGCAG | 8080 fluorescence intensity (a.u.)
TTGGTGGCCTTTTCTCCCTTTTTTGCATGTGCTTTGCTCTCGGAGTCACCTAGTGCAG | 14100 fluorescence intensity (a.u.)
ACTGACACGTCCCATATATCATGCACCAACCGCCAACCCACGGAGTCACCTAGTGCAG | 8310 fluorescence intensity (a.u.)
CGAAACTGACATGTGGGCCCCACCTACTTTTTTTATTTATCGGAGTCACCTAGTGCAG | 10200 fluorescence intensity (a.u.)
ATCTCCCTTCTCTTCTGCTTCCGATCTGCAGCGCCTTCCGCGGAGTCACCTAGTGCAG | 9300 fluorescence intensity (a.u.)
ACTCCCACCTATTTGTATAAGTTAACACATATATATTGACCGGAGTCACCTAGTGCAG | 8580 fluorescence intensity (a.u.)

Sequence | binding signal
AGGGGATTGACAATTCGACATTGGCCAACTCTTTATCTGTCGGAGTCACCTAGTGCAG | 8500 fluorescence intensity (a.u.)
GACAGGTGGGAAAAATGAATGGTGAATAGTTGTGATTGGTCGGAGTCACCTAGTGCAG | 10200 fluorescence intensity (a.u.)
ATGCAGATGTCATCTCATCTCATCTCATCTCTATCCAATTCGGAGTCACCTAGTGCAG | 8190 fluorescence intensity (a.u.)
TAAGCTGTTTCTCTTGATACTCGATCTACATCTTTTCCCTCGGAGTCACCTAGTGCAG | 9340 fluorescence intensity (a.u.)
CCGGGTGGAGGGCGGGGAAGCGGCGGCGGAACTCCGGGCTCGGAGTCACCTAGTGCAG | 8490 fluorescence intensity (a.u.)
ATGGGTTGCTGGTGCTGTGGGGACGACAGGGTGGAGTCTACGGAGTCACCTAGTGCAG | 9520 fluorescence intensity (a.u.)
TCCGTCTTCTCCTCCTGCTCCTTGATGCGCTCGCCGCTGACGGAGTCACCTAGTGCAG | 8420 fluorescence intensity (a.u.)
CCAAAACACCCACTGCCTACCCGTCGCCGCCCGCCGCCATCGGAGTCACCTAGTGCAG | 8420 fluorescence intensity (a.u.)
GCCCTATGTATATTTAGCTCAAATGTTGCTAACTTATATACGGAGTCACCTAGTGCAG | 9870 fluorescence intensity (a.u.)
TTTTTAAGGTTAACTGTCAACTACTCGCATTTCTCATATACGGAGTCACCTAGTGCAG | 8280 fluorescence intensity (a.u.)
GCAAACTGCGGCCACCCTTTTATCACACAAATTTTTGACACGGAGTCACCTAGTGCAG | 8040 fluorescence intensity (a.u.)
CTGCTTCGGTCGTCGGCCGCCTGTCCCGCTCAACCGGCCGCGGAGTCACCTAGTGCAG | 10600 fluorescence intensity (a.u.)
CGCCTTCTCCGCCTTCGTCAGCAGCCGCAGCTTCTCCACGCGGAGTCACCTAGTGCAG | 8860 fluorescence intensity (a.u.)
ATATATGTATTTTAAGAATTTAAGCACAGTTGACTTTTTTCGGAGTCACCTAGTGCAG | 8550 fluorescence intensity (a.u.)
TTTTCAGCCTTTACTTTTAGATCGTTAAAAACACGTATATCGGAGTCACCTAGTGCAG | 8300 fluorescence intensity (a.u.)
ATAAATTAGGTACTACCTATATGATCTTTTTTTCCATTTTCGGAGTCACCTAGTGCAG | 8310 fluorescence intensity (a.u.)
GCAGATTCGCAGTCTTCAGTACCCGTTTAACCGTTCACAACGGAGTCACCTAGTGCAG | 8540 fluorescence intensity (a.u.)
ACGCGAGCCGGCATGTATGGGTTGGGTGGGGAGCAGGCGGCGGAGTCACCTAGTGCAG | 11600 fluorescence intensity (a.u.)
TCTCAGTTTTTTCTTTGTTGATTTACTGACCAAATTCTTTCGGAGTCACCTAGTGCAG | 8320 fluorescence intensity (a.u.)
TCAAATTCTTGCGTGTCCATGTCACTACCCTTTTGTAACTCGGAGTCACCTAGTGCAG | 11200 fluorescence intensity (a.u.)
GATCTACTGCTTGCTGCTGCTGCTACTAGCGTCTTCTTTCCGGAGTCACCTAGTGCAG | 10000 fluorescence intensity (a.u.)

Sequence | binding signal
TCTCTCTCTTTCTGTCCATTTCTATCTGTGCTCTCGCCTGCGGAGTCACCTAGTGCAG | 8090 fluorescence intensity (a.u.)
AACTTCCGTCCTTTTCCATCACATCAACGTGTCATACACACGGAGTCACCTAGTGCAG | 10800 fluorescence intensity (a.u.)
GTCGTCTCGGTTCATCGTCAACTCAGCTCCTCTCTTTCTTCGGAGTCACCTAGTGCAG | 8080 fluorescence intensity (a.u.)
AACCGGACTGGTTTCTCTTACGTGGCTCCCTTTACATTACCGGAGTCACCTAGTGCAG | 8510 fluorescence intensity (a.u.)
TTCTAAGCCAGATTGTGACAGTAAACCTCCTAATAATTTTCGGAGTCACCTAGTGCAG | 8290 fluorescence intensity (a.u.)
CAATGATCATTCTGTTTACACTGACGTACCAGCAGACCAACGGAGTCACCTAGTGCAG | 8670 fluorescence intensity (a.u.)
AGGTTGCCAGCGTGTGGGGTGGGTTATTTTCGTGTGCGGGCGGAGTCACCTAGTGCAG | 11100 fluorescence intensity (a.u.)
CCCGACCCACATCCTTCGCTGCACAGAGCATGCAGCATCTCGGAGTCACCTAGTGCAG | 9020 fluorescence intensity (a.u.)
TACATTTATATTCGCTTCTGCTGCAGCAAAGTCACCATCTCGGAGTCACCTAGTGCAG | 9210 fluorescence intensity (a.u.)
ATTTTGCTTTTCAGATTTTCCACAATACTGTCTCACTCAGCGGAGTCACCTAGTGCAG | 8140 fluorescence intensity (a.u.)
GCCTTGTATATTAGTGGTCATGCTCATGGTCATTTTATTGCGGAGTCACCTAGTGCAG | 8580 fluorescence intensity (a.u.)
CCAGGCCCATCACTTGCGTTGTGTGTTAATCCACCGTATCCGGAGTCACCTAGTGCAG | 11800 fluorescence intensity (a.u.)
TCATCACCCACACACCAAGCAAGCACTCACTCTCTCTTGCCGGAGTCACCTAGTGCAG | 8650 fluorescence intensity (a.u.)
CCATCGCTGCGGGTTCCCAGCCACTTTTGGAACTCCTCCTCGGAGTCACCTAGTGCAG | 8410 fluorescence intensity (a.u.)
CCGCCGCTGTGCGCCTCGCCTCTCCGTCGACCGTGCCGCCCGGAGTCACCTAGTGCAG | 10100 fluorescence intensity (a.u.)
CTACAAGCTATCAGTCTTCCTATGAACCGTATCTCCGGACCGGAGTCACCTAGTGCAG | 8520 fluorescence intensity (a.u.)
CGGTGGGCCAGCCACACGCCTTCAACCTCTGAACCACCACCGGAGTCACCTAGTGCAG | 8140 fluorescence intensity (a.u.)
CGGCGGAGGAGGAGGAGGAGGGGTGGGGAAGAAGAGGGGACGGAGTCACCTAGTGCAG | 22800 fluorescence intensity (a.u.)
CCGCATCATCGTTTGGCTTGGATCCGCATCACTGATTCACCGGAGTCACCTAGTGCAG | 8270 fluorescence intensity (a.u.)
GAGCCCATTGTGAAATCTGTTTTGTACCCTTAGTCATCGTCGGAGTCACCTAGTGCAG | 10200 fluorescence intensity (a.u.)
TCACGACGAAGATTTGTCACATTTTCTTGCTTCATTGACTCGGAGTCACCTAGTGCAG | 8590 fluorescence intensity (a.u.)

Already shown: entries from further up.
Sequence | binding signal
CTACAAGCTATCAGTCTTCCTATGAACCGTATCTCCGGACCGGAGTCACCTAGTGCAG | 8520 fluorescence intensity (a.u.)
CGGTGGGCCAGCCACACGCCTTCAACCTCTGAACCACCACCGGAGTCACCTAGTGCAG | 8140 fluorescence intensity (a.u.)
CGGCGGAGGAGGAGGAGGAGGGGTGGGGAAGAAGAGGGGACGGAGTCACCTAGTGCAG | 22800 fluorescence intensity (a.u.)
CCGCATCATCGTTTGGCTTGGATCCGCATCACTGATTCACCGGAGTCACCTAGTGCAG | 8270 fluorescence intensity (a.u.)
GAGCCCATTGTGAAATCTGTTTTGTACCCTTAGTCATCGTCGGAGTCACCTAGTGCAG | 10200 fluorescence intensity (a.u.)
TCACGACGAAGATTTGTCACATTTTCTTGCTTCATTGACTCGGAGTCACCTAGTGCAG | 8590 fluorescence intensity (a.u.)

Continuation.

Sequence | binding signal
ATCTCTCTCTAGAAGAGTCCACACCTCAAGTTTTACTGGTCGGAGTCACCTAGTGCAG | 8410 fluorescence intensity (a.u.)
ACTATATACAACTAGTCATGCACCCTGCAGGTTGACTTTACGGAGTCACCTAGTGCAG | 8270 fluorescence intensity (a.u.)
TGAGCATCTCGATCGATCATCTCTCTACACAACACGCACCCGGAGTCACCTAGTGCAG | 9260 fluorescence intensity (a.u.)
CATCCCGCCGCGAGCCACCTACACCCGTTCCACCATACGCCGGAGTCACCTAGTGCAG | 8550 fluorescence intensity (a.u.)
GATAGGGTTTCTCATAGATGATGTGGTAGTTGATTTAGACCGGAGTCACCTAGTGCAG | 8690 fluorescence intensity (a.u.)
TCCGTTTTTTATGCGCACCCACCCCGGCATTTGCCTCCTTCGGAGTCACCTAGTGCAG | 9690 fluorescence intensity (a.u.)
CACCATCCAAAGTATATTGTGTCTTAAATTTCACGTATTTCGGAGTCACCTAGTGCAG | 8110 fluorescence intensity (a.u.)
CACGTCATCAGGCATCCACCCGCCTCTCGATTGATTCCCCCGGAGTCACCTAGTGCAG | 8320 fluorescence intensity (a.u.)
CACCCTTCATATGCCGTAAAAATGGTTTTGTTTGTAAAAACGGAGTCACCTAGTGCAG | 9070 fluorescence intensity (a.u.)
AATTGGTAGGGTAAAGAACCAGGCGCATCTTGCAAATCATCGGAGTCACCTAGTGCAG | 8190 fluorescence intensity (a.u.)
ATGTCTGTCTGTCTAGATTTATTAACATATATATGAATTTCGGAGTCACCTAGTGCAG | 9270 fluorescence intensity (a.u.)
ATATTTGACGCCGTTGACTTTTTTAAACATGTTTGACCGTCGGAGTCACCTAGTGCAG | 44400 fluorescence intensity (a.u.)
GGCCACGCCCGCCTCCGCGATCGTCCTCGCCGGCGACTGCCGGAGTCACCTAGTGCAG | 8410 fluorescence intensity (a.u.)
ATCCTCCATCCAATGAACGCCACACAGCTCTCAACCATATCGGAGTCACCTAGTGCAG | 11700 fluorescence intensity (a.u.)
TATGTTGTTTCCAAAGTCTTATTTTCATTTTCTTTTGATGCGGAGTCACCTAGTGCAG | 9580 fluorescence intensity (a.u.)
CTGCCAACTTTTGCCTAAGCAAGCCTGTTTCGTTACCAGCCGGAGTCACCTAGTGCAG | 10300 fluorescence intensity (a.u.)
TTAATTGTTGGGATCTAGTATATATTTTGTTCCTACATCACGGAGTCACCTAGTGCAG | 8190 fluorescence intensity (a.u.)
GCTACCTGTACTAAGTTATTTTGTTTTTTTAATGTTTCTTCGGAGTCACCTAGTGCAG | 11700 fluorescence intensity (a.u.)
TATTTCGTGAGAGAGCTTCACCCAGCTCCGCTTCTATTTTCGGAGTCACCTAGTGCAG | 8070 fluorescence intensity (a.u.)
ACGCCGTTGACTTTTTAAGCAACATTTGACCATTCGTTTTCGGAGTCACCTAGTGCAG | 30000 fluorescence intensity (a.u.)
ATACGTGTACACAACCCATCCATCATCCTATAAGTGACAGCGGAGTCACCTAGTGCAG | 8090 fluorescence intensity (a.u.)
